# Results from PMC12722638.
# The chains behind the UniProt entries cited, without tags or fusion partners. Where a name states a change or a piece, a line headed by the entry shows the natural chain unless it says otherwise.
# UniProt Q13404: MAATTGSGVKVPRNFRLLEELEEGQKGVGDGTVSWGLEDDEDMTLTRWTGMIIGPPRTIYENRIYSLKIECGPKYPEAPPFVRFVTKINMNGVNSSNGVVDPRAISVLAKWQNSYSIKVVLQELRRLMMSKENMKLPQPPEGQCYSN
# UniProt P40337: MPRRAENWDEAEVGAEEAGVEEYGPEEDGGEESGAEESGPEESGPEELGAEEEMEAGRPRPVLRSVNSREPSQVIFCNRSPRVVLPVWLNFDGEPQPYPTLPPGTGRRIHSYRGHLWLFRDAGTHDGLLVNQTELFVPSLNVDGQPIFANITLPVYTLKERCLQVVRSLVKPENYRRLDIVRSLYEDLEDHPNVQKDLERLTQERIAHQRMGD
# UniProt Q16763: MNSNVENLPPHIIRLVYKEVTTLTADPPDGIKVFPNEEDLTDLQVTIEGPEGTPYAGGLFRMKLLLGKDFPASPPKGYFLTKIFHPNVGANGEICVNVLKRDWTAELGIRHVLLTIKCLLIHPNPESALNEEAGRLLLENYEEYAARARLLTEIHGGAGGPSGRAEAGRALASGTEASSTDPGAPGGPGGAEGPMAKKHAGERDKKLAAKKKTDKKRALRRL
# No constants are given. Whether binding was seen depends on the method and setting. Binding seen in cells or lysates may run through a third protein. Some entries that bind do so weakly or less than the wild type.
# Assays:
# [1] = target: Flag-UBE2V1 (ubiquitin conjugating enzyme E2 variant 1) (UniProt Q13404); experiment: co-IP; Flag-UBE2V1 and Myc-VHL co-expressed; IP with Flag antibody (forward) or Myc antibody (reverse); 3 distinct cell lines
# [2] = target: Flag-UBE2V1 (ubiquitin conjugating enzyme E2 variant 1) (UniProt Q13404); experiment: co-IP; Flag-UBE2V1 and His-UBE2S co-expressed; cells not given
# [3] = target: von Hippel-Lindau (VHL) protein, endogenous (human (endogenous in HEK-293T and HCC cell lines)) (UniProt P40337); experiment: co-IP; endogenous proteins in lysates of HEK-293T and HCC cell lines; primary antibody overnight at 4°C, Protein A/G magnetic beads, Western blot
substance,measurement,setting,value
Myc-VHL (from UniProt P40337 1-213),binding,[1],binds
His-UBE2S (from UniProt Q16763 1-222) (enzyme),binding,[2],binds
"UBE2S, endogenous (from UniProt Q16763 1-222) (enzyme)",binding,[3],binds
